From patent publication US20140088056A1, “CARDIAC GLYCOSIDES ARE POTENT INHIBITORS OF INTERFERON-BETA GENE EXPRESSION” (priority 2010, published 2014)
At least one compound was matched to its structure with a doubt left.

System: endogenous IFNβ gene
Test: RT-PCR of virus induced endogenous IFNβ gene in 293T cells treated with ion-channel modulators
Type: cell-based, human
Conditions: 10 uM, 6 hrs
Experimental: 293T cells were treated with 10 uM of nimodipine, diazoxide or phenamil 30 min before Sendai virus infection, 6 hrs later total RNA were extracted and the expression of various genes were analyzed by RT-PCR.
Since the major function of the pump is to maintain the cellular ion homeostasis, the inventors reasoned that it might be possible to inhibit or stimulate IFNβ induction by varying the intracellular ion concentration. The inventors thus performed luciferase reporter assays with an ion-channel ligand library, which contains various modulators for sodium, potassium, calcium and chloride channels. The experiments were conducted similarly to the initial screening assays: 293T cells were transfected with reporter plasmid, then chemical ligands were added before starting virus infection, and luciferase activity measured after another 24 hrs.

## COCCOC(=O)C1=C(C)NC(C)=C(C(=O)OC(C)C)C1c1cccc([N+](=O)[O-])c1 (stereo not shown) [nimodipine, Nimodipine]
  virus induced expression of the endogenous IFNβ gene: similarly inhibited
